These results are taken from patent US20030154500.

Where a protein sequence is shown, tags need not be part of it.

The data set has as its system T1, SB transposase N123 (N-terminal DNA-binding domain, residues 1-123) (synthetic (salmonid consensus)).
T1 sequence: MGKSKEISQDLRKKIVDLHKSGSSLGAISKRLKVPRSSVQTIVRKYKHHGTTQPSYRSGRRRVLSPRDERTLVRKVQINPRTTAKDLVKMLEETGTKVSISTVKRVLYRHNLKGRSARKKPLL
The data set is described as follows: EMSA. As to conditions: two complexes, two N123 per IR; 20 mM HEPES pH 7.5, 150 mM NaCl, poly(dI)(dC), on ice; competed by unlabelled IR; purified recombinant protein; protein details: C-terminal His tag (pET21a); label: 32P. In general terms: In EMSA bound probe runs differently from free probe, usually more slowly.

Turning to “AGTTGAAGTCGGAAGTTTACATACACTTAAGTTGGAGTCATTAAAACTCGTTTTTCAACTACACCACAAATTTCTTGTTAACAAACAATAGTTTTGGCAAGTCAGTTAGGACATCTACTTTGTGCATGACACAAGTCATTTTTCCAACAATTGTTTACAGACAGATTATTTCACTTATAATTCACTGTATCACAATTCCAGTGGGTCAGAAGTTTACATACACTAA (double strand)”, the binding result is “binds”.
